Experiment [1] concerns the target androgen receptor (human (endogenous in LO2 and SK-Hep1)) (UniProt P10275). Put plainly: condition: only cells transfected with empty vector (no ectopic CCRK); co-IP; as a1, but cells transfected with empty vector.
The target is the same in experiment [2]. Put plainly: condition: only cells transfected with kinase-defective (KD) CCRK; co-IP; as a1, but cells transfected with kinase-defective (KD, T161A) CCRK.
Experiment [3] has the same target. As to the kind of experiment: co-IP; lysates of LO2 and SK-Hep1 cells transfected with WT CCRK; immunoprecipitated with anti-p-STAT3 Tyr705 or anti-AR (IgG as control) at 4 °C overnight, protein A/G beads; co-IP lysis buffer 20 mM Tris pH 7.5, 150 mM NaCl, 1.0% Triton X-100, 1 mM EDTA; detected by western blot.

Chains of the proteins cited; added tags and fusions are not shown.
UniProt P10275: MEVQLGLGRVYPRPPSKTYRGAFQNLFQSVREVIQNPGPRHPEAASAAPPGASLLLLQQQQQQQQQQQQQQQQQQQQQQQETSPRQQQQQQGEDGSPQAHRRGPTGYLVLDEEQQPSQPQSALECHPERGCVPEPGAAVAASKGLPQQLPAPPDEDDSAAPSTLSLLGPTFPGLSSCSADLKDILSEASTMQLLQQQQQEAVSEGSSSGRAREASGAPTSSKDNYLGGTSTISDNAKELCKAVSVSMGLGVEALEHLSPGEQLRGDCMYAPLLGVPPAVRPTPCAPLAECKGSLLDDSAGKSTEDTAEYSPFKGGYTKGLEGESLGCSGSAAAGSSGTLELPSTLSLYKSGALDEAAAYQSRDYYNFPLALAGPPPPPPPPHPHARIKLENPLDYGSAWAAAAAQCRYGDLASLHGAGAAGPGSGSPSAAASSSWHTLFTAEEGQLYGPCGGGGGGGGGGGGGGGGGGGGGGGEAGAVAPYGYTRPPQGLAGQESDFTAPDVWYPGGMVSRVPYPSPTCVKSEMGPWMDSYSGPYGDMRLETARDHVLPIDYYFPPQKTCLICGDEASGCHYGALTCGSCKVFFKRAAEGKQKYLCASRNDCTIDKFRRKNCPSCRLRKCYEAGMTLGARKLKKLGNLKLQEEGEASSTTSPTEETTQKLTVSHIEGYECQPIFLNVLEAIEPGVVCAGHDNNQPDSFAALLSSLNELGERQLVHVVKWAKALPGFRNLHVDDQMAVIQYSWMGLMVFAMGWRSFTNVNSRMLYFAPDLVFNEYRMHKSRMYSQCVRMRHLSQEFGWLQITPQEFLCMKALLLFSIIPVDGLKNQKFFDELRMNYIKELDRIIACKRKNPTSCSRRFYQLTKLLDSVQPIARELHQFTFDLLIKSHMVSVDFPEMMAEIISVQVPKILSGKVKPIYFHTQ
UniProt P40763: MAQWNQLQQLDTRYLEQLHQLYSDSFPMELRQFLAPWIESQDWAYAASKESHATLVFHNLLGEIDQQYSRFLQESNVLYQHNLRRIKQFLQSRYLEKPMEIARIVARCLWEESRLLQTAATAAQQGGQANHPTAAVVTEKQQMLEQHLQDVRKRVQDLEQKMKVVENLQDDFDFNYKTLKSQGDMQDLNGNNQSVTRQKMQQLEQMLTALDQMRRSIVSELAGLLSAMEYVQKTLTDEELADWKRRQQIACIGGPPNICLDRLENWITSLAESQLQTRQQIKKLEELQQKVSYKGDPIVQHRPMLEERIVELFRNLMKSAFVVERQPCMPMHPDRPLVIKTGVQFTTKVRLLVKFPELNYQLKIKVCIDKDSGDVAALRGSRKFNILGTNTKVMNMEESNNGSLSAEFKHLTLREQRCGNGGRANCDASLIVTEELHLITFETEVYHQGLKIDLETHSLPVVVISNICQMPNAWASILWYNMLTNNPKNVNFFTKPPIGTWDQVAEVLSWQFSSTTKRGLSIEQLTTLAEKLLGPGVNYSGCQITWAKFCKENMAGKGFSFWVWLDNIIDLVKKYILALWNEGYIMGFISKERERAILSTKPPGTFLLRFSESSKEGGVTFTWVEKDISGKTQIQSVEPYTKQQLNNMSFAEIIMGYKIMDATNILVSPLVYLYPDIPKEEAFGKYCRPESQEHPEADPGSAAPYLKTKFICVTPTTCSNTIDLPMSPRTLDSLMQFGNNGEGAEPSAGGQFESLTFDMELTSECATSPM

Results are given in words; binding and its absence hold for the method and conditions named. In cells and extracts the contact can be indirect. Some results given as binding are weak or reduced against the parent protein; the word gives no strength.

As for “STAT3 phosphorylated at Tyr705 (signal transducer and activator of transcription 3) (from UniProt P40763 1-770)”, the binding result in experiment [1] was “no binding”; in experiment [2], “no binding”; in experiment [3], “binds”.
